From PubChem BioAssay AID2284372 (EPA ToxCast)
The list shows a part of the results, in another mix than the full data. Inconclusive results are not listed. Activity calls are given as the source filed them. Rule for the calls: active = hit-call score of the fitted dose curve at least 0.9, where 1 is the maximum; inconclusive = response in the unintended direction; inactive = score below 0.9.

By UniProt entry, the sequences of proteins in these tests, tags left out. Where a name states a change or a piece, a line headed by the entry shows the natural chain unless it says otherwise.
UniProt P04150: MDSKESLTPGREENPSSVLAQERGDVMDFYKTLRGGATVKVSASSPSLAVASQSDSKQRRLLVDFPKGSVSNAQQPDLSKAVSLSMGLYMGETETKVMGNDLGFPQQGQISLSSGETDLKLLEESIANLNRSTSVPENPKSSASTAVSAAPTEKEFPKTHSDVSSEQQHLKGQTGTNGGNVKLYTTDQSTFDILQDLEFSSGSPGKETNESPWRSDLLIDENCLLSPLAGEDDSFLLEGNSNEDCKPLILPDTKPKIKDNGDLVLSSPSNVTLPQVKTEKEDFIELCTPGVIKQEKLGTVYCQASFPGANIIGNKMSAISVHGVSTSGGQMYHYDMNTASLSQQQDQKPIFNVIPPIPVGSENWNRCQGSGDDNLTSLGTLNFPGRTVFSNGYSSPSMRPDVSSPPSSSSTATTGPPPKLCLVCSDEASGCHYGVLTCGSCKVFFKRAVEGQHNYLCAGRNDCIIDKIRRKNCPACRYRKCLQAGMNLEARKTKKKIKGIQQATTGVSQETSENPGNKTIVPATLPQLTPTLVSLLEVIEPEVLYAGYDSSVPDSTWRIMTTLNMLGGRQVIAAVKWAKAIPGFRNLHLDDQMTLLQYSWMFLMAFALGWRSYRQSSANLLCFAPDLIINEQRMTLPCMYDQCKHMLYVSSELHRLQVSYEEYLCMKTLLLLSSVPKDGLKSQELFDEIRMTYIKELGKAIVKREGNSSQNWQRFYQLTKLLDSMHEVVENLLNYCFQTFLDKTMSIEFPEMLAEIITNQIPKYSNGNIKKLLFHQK

Molecular target: Glucocorticoid receptor (Homo sapiens) (UniProt P04150)
Test: ATG_hGR_EcoTox2: Attagene TRANS-FACTORIAL EcoTox-2 HepG2 Assay for human Glucocorticoid Receptor (GR)
Experimental: ATG_EcoTox2 is a cell-based, multiplexed assay created by modifying the existing Attagene TRANS-FACTORIAL system to include a panel of nuclear receptors from some or all the following species: human (Homo sapiens), african clawed frog (Xenopus laevis), rainbow trout (Oncorhynchus mykiss), japanese medaka (Oryzias latipes), and zebrafish (Danio rerio). The ECOTOX2-FACTORIAL format uses HepG2, a human liver cell line, with measurements taken at 24 hours after chemical dosing in a 24-well plate. ATG_hGR_EcoTox2 is one of 29 assay components calculated in the ATG_EcoTox2 assay. It is designed to make measurements of mRNA induction, a form of inducible reporter, as detected with fluorescence intensity signals by Reverse transcription polymerase chain reaction (RT-PCR) and Capillary electrophoresis technology.The assay endpoint ATG_hGR_EcoTox2 was analyzed in the positive analysis fitting direction relative to DMSO as the negative control and baseline of activity. Using a type of inducible reporter, measures of mRNA for gain-of-signal activity can be used to understand the reporter gene at the transcription factor-level as they relate to the gene for glucocorticoid receptor. Furthermore, this assay endpoint can be referred to as a primary readout, because this assay has produced multiple assay endpoints where this one serves a reporter gene function. […]

Compound: C[C@@H]1C[C@H]2[C@@H]3CCC4=CC(=O)C=C[C@]4(C)[C@@]3(F)[C@@H](O)C[C@]2(C)[C@@]1(O)C(=O)COP(=O)(O)O
- AC50: active: 4.57 nM
